The supplement of paper PMC6411743
± gives the standard deviation of the averaged measurements. Some of the results follow.

Experiments:
Experiment in all cases: NP40-soluble protein abundance relative to vehicle (solubility fold change) (ratio); higher = more soluble protein in presence of GTP
PREB = biological target: T1, PREB (UniProt Q9HCU5)
T1 sequence (whole entry): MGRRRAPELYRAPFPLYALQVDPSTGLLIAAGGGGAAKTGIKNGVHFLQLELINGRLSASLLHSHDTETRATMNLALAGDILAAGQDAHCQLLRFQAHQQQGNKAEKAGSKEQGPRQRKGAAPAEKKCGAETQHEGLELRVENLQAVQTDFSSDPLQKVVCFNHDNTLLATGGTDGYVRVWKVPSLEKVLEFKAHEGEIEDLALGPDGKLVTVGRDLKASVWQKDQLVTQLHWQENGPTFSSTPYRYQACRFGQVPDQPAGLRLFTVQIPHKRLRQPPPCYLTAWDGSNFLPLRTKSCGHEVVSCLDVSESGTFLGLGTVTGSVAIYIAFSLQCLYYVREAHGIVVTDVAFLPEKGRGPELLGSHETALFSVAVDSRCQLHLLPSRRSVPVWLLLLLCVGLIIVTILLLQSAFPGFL
Outline: (§1)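 In three independent experiments, Jurkat crude lysate made by Dounce homogenisation was treated for 10 min at room temperature and then 3 min at 37 °C with eight concentrations ranging from 0.1 to 10 mM. It was then solubilised with 0.8% NP40 plus benzonase for 60 min at 4 °C and ultracentrifuged. The supernatant was TMT-labelled for LC-MS/MS, and each value is the fold change against the detergent-processed vehicle for the same replicate, using vsn-normalised intensities.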

PRKRIP1 = biological target: T2, PRKRIP1 (UniProt Q9H875)
T2 sequence (whole entry): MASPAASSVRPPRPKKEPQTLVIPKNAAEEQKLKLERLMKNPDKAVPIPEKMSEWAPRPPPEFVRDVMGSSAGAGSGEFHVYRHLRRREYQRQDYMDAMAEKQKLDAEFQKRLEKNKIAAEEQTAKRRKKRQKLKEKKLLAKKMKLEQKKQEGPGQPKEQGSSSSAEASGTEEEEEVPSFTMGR
Outline: as §1

RBM12 = biological target: T3, RBM12 (UniProt Q9NTZ6)
T3 sequence (whole entry): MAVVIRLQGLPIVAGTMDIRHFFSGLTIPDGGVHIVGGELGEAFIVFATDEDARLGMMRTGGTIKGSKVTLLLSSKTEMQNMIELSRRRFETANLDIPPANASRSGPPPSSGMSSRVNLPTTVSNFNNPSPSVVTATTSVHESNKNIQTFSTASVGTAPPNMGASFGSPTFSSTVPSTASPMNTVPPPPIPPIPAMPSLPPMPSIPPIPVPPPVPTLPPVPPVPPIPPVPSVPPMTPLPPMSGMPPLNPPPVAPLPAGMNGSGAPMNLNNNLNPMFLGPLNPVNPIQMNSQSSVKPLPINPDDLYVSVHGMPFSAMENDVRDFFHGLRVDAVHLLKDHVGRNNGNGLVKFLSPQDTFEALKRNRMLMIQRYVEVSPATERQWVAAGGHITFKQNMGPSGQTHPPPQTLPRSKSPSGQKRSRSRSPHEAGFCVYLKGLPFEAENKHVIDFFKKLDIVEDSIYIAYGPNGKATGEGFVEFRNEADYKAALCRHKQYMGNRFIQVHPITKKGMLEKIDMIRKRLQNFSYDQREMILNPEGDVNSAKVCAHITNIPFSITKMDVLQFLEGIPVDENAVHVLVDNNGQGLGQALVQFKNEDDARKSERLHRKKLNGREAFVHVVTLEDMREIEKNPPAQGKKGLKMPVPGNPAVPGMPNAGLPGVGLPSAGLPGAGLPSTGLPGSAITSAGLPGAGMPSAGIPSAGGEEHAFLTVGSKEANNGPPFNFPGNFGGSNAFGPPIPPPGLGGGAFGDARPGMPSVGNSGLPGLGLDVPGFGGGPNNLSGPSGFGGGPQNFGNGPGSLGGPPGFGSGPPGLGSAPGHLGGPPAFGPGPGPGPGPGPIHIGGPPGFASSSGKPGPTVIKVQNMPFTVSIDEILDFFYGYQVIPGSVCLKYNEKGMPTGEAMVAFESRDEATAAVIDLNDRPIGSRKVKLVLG
Outline: as §1

[1] = biological target: T4, UniProt Q9GZT6 and related entries
T4 sequence (whole entry): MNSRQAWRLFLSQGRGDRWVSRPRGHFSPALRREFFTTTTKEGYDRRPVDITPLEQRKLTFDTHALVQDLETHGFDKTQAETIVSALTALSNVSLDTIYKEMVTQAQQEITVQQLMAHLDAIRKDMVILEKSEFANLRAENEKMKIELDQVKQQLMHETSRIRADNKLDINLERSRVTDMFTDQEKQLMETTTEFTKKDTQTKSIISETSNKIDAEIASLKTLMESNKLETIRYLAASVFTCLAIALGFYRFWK
Outline: as §1

UniProt Q9H0G5 = biological target: T5, UniProt Q9H0G5
T5 sequence (whole entry): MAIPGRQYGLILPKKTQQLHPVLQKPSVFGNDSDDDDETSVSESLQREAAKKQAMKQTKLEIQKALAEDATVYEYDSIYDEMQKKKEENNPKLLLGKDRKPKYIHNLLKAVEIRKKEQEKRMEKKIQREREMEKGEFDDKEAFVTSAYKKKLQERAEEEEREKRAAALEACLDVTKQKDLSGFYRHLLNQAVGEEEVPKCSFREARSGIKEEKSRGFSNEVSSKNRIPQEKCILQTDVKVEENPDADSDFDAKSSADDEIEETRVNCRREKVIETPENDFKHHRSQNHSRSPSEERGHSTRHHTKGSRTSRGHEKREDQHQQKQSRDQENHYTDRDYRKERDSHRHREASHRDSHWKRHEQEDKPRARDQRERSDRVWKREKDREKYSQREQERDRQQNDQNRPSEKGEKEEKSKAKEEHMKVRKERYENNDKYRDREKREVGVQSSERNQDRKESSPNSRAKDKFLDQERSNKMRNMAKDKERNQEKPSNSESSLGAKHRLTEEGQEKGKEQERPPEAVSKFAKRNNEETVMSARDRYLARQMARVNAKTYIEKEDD
Outline: as §1

SMILES: Nc1nc2c(ncn2[C@@H]2O[C@H](COP(=O)(O)OP(=O)(O)OP(=O)(O)O)[C@@H](O)[C@H]2O)c(=O)[nH]1 [guanosine triphosphate]
- NP40-soluble protein abundance (PREB; concentration: 1mM): 0.985 ± 0.014
- NP40-soluble protein abundance (PREB; concentration: 2mM): 1.07 ± 0.055
- NP40-soluble protein abundance (PREB; concentration: 4mM): 1.02 ± 0.015
- NP40-soluble protein abundance (PREB; concentration: 6mM): 0.985 ± 0.02
- NP40-soluble protein abundance (PREB; concentration: 8mM): 0.96 ± 0.032
- NP40-soluble protein abundance (PREB; concentration: 10mM): 0.965 ± 0.043
- NP40-soluble protein abundance (PRKRIP1; concentration: 0.1mM): 0.918 ± 0.034
- NP40-soluble protein abundance (PRKRIP1; concentration: 0.5mM): 0.908 ± 0.068
- NP40-soluble protein abundance (PRKRIP1; concentration: 1mM): 0.982 ± 0.046
- NP40-soluble protein abundance (PRKRIP1; concentration: 2mM): 0.999 ± 0.13
- NP40-soluble protein abundance (PRKRIP1; concentration: 4mM): 0.962 ± 0.089
- NP40-soluble protein abundance (PRKRIP1; concentration: 6mM): 1.02 ± 0.14
- NP40-soluble protein abundance (PRKRIP1; concentration: 8mM): 1 ± 0.1
- NP40-soluble protein abundance (PRKRIP1; concentration: 10mM): 1.15 ± 0.02
- NP40-soluble protein abundance (RBM12; concentration: 0.1mM): 0.961 ± 0.029
- NP40-soluble protein abundance (RBM12; concentration: 0.5mM): 0.967 ± 0.042
- NP40-soluble protein abundance (RBM12; concentration: 1mM): 0.936 ± 0.058
- NP40-soluble protein abundance (RBM12; concentration: 2mM): 0.894 ± 0.06
- NP40-soluble protein abundance (RBM12; concentration: 4mM): 0.883 ± 0.055
- NP40-soluble protein abundance (RBM12; concentration: 6mM): 0.885 ± 0.07
- NP40-soluble protein abundance (RBM12; concentration: 8mM): 0.873 ± 0.054
- NP40-soluble protein abundance (RBM12; concentration: 10mM): 0.857 ± 0.064
- NP40-soluble protein abundance ([1]; concentration: 0.1mM): 0.843 ± 0.048
- NP40-soluble protein abundance ([1]; concentration: 0.5mM): 0.82 ± 0.044
- NP40-soluble protein abundance ([1]; concentration: 1mM): 0.983 ± 0.063
- NP40-soluble protein abundance ([1]; concentration: 2mM): 0.904 ± 0.036
- NP40-soluble protein abundance ([1]; concentration: 4mM): 0.891 ± 0.07
- NP40-soluble protein abundance ([1]; concentration: 6mM): 0.944 ± 0.073
- NP40-soluble protein abundance ([1]; concentration: 8mM): 0.922 ± 0.079
- NP40-soluble protein abundance ([1]; concentration: 10mM): 0.953 ± 0.048
- NP40-soluble protein abundance (UniProt Q9H0G5; concentration: 0.1mM): 0.999 ± 0.055
- NP40-soluble protein abundance (UniProt Q9H0G5; concentration: 0.5mM): 1.01 ± 0.034
- NP40-soluble protein abundance (UniProt Q9H0G5; concentration: 1mM): 1.04 ± 0.018
- NP40-soluble protein abundance (UniProt Q9H0G5; concentration: 2mM): 1.02 ± 0.067
